This is an account of results in paper PMC9727977, “Pharmacokinetics and pharmacodynamics of bioactive compounds in Penyanqing preparation in THP-1 inflammatory cells induced by Lipopolysaccharide” (BMC Complementary Medicine and Therapies, 2022).

In the data set the test system is IL-1β production in LPS-induced THP-1 cells. Description: Effect of PYQ drug-containing plasma on IL-1β production in LPS-induced THP-1 cells (ELISA) and PK-PD fitting. The class given is cell-based, human. The note with it: PK-PD model; X plasma concentration of the compound, Y IL-1β of THP-1 cells treated with drug-containing plasma.

Regarding `O=C(/C=C/c1ccc(O)c(O)c1)O[C@@H]1C[C@](O)(C(=O)O)C[C@@H](O)[C@H]1O` [CH, chlorogenic acid], the “fitting equation, effect fitting of blood concentration—IL-1β” value (“fitting equation, effect fitting” for short) is given as “Y = 32.247—1.386 lnX”.

As to `O=Cc1ccc(O)c(O)c1` [PRO, protocatechualdehyde], the “fitting equation, effect fitting” value is “Y = 33.031—1.454 lnX”.

Consider `C[C@@]12C[C@@]3(O)O[C@@H](O1)[C@]1(COC(=O)c4ccccc4)[C@H]3C[C@@]12O[C@@H]1O[C@H](CO)[C@@H](O)[C@H](O)[C@H]1O` [PE, paeoniflorin], for which the “fitting equation, effect fitting” value is reported as “Y = 33.598—1.428 lnX”.

For `COc1cc(/C=C/C(=O)O)ccc1O` [FE, ferulic acid], the “fitting equation, effect fitting” value was “Y = 33.427—1.446 lnX”.

Consider `C[C@@H]1O[C@@H](O[C@H]2C(=O)c3c(O)cc(O)cc3O[C@@H]2c2ccc(O)c(O)c2)[C@H](O)[C@H](O)[C@H]1O` [AST, astilbin], for which the “fitting equation, effect fitting” value is listed as “Y = 33.736—1.448 lnX”.

With salvianolic acid B [SAB], the “fitting equation, effect fitting” value is listed as “Y = 40.971—2.540 lnX”.
